PubChem BioAssay AID504764 | Drosophila RNAi Screening Center, 2011
In all, the deposit lists about 22,000 reagents; this is an unselected part of those with a known target gene and a result. Over the whole deposit, 403 (1.9%) got an active call. 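Unnormalised raw counts per well; ratio z-scores behind the hit calls and whether each hit raises or lowers signal are not deposited.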 A number with no mark means an inactive call. Not stated in the record: the amount of reagent.

- Screen: 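Genome-wide screen for regulators of Notch-driven gene expression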 (primary screen)
- System: Drosophila Kc167 cells
- Knock-down reagent: long dsRNA against Drosophila genes
- Timing: about 5 days (4 days dsRNA, then 24 h after transfection)
- Challenge: transfection of constitutively active membrane-tethered Notch lacking the extracellular domain, read 24 h later
- Read-out: 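Light from a Notch-responsive E(spl)m3 luciferase reporter under active Notch, with control-promoter and no-Notch reporter wells to normalise; raw counts from paired wells a and b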
- Scale: induced reporter light, run 1, well a and induced reporter light, run 1, well b: higher = more light from the Notch target reporter with active Notch; control promoter light, run 1, well a and control promoter light, run 1, well b: higher = more light from the viral control promoter (cell number, transfection, viability); uninduced reporter light, run 1, well a: higher = more light from the Notch target reporter without active Notch
- Active means: 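Hit if the duplicate-averaged log2 ratio of induced to control-promoter light gives a plate-wise z beyond ±2, or induced to uninduced beyond ±1.8; weak-control or discordant-duplicate wells dropped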
- Calls: active = modifier hit (raised or lowered Notch signal); inactive = not a hit

olf186-M [DRSC07657] showed induced reporter light, run 1, well a = 1.24e5; induced reporter light, run 1, well b = 1.07e5; control promoter light, run 1, well a = 1.31e5; control promoter light, run 1, well b = 1.63e5; uninduced reporter light, run 1, well a = 9728.
Depletion of CG8195 [DRSC07103] resulted in: induced reporter light, run 1, well a = 1.28e5; induced reporter light, run 1, well b = 1.41e5; control promoter light, run 1, well a = 2.20e5; control promoter light, run 1, well b = 2.90e5; uninduced reporter light, run 1, well a = 11500.
Silencing of BCAS2 [DRSC15693] resulted in: induced reporter light, run 1, well a = 1.80e5; induced reporter light, run 1, well b = 1.83e5; control promoter light, run 1, well a = 2.14e5; control promoter light, run 1, well b = 2.04e5; uninduced reporter light, run 1, well a = 13965.
CG34046 (retired record) [DRSC14075] scored induced reporter light, run 1, well a = 73460; induced reporter light, run 1, well b = 72185; control promoter light, run 1, well a = 72260; control promoter light, run 1, well b = 76875; uninduced reporter light, run 1, well a = 7155.
After knock-down of jv (javelin) [DRSC08831], the screen gave induced reporter light, run 1, well a = 1.59e5; induced reporter light, run 1, well b = 1.35e5; control promoter light, run 1, well a = 1.47e5; control promoter light, run 1, well b = 1.40e5; uninduced reporter light, run 1, well a = 10555.
Depletion of jv (javelin) [DRSC08832] resulted in: induced reporter light, run 1, well a = 1.65e5; induced reporter light, run 1, well b = 1.68e5; control promoter light, run 1, well a = 2.24e5; control promoter light, run 1, well b = 1.62e5; uninduced reporter light, run 1, well a = 12430.
Depletion of CG18675 [DRSC08536] came out at: induced reporter light, run 1, well a = 1.90e5; induced reporter light, run 1, well b = 1.47e5; control promoter light, run 1, well a = 2.72e5; control promoter light, run 1, well b = 2.14e5; uninduced reporter light, run 1, well a = 12150.
After knock-down of CG30195 [DRSC04155], the record shows induced reporter light, run 1, well a = 1.55e5; induced reporter light, run 1, well b = 1.57e5; control promoter light, run 1, well a = 1.70e5; control promoter light, run 1, well b = 1.55e5; uninduced reporter light, run 1, well a = 11380.
For CG14805 [DRSC18554], the values are induced reporter light, run 1, well a = 1.04e5; induced reporter light, run 1, well b = 1.09e5; control promoter light, run 1, well a = 1.79e5; control promoter light, run 1, well b = 1.67e5; uninduced reporter light, run 1, well a = 7335.
Depletion of Cpr66D (Cuticular protein 66D) [DRSC10640] resulted in: induced reporter light, run 1, well a = 23005; induced reporter light, run 1, well b = 13760; control promoter light, run 1, well a = 24950; control promoter light, run 1, well b = 25155; uninduced reporter light, run 1, well a = 4350.
Cpr66D (Cuticular protein 66D) [DRSC10646] showed induced reporter light, run 1, well a = 48495; induced reporter light, run 1, well b = 31305; control promoter light, run 1, well a = 55080; control promoter light, run 1, well b = 47745; uninduced reporter light, run 1, well a = 6260.
Depletion of per (period) [DRSC18818] came out at: induced reporter light, run 1, well a = 1.09e5; induced reporter light, run 1, well b = 98835; control promoter light, run 1, well a = 1.52e5; control promoter light, run 1, well b = 1.91e5; uninduced reporter light, run 1, well a = 7425.
For Pcyt1 (Phosphocholine cytidylyltransferase 1) [DRSC08157] the deposit lists induced reporter light, run 1, well a = 1.03e5; induced reporter light, run 1, well b = 88915; control promoter light, run 1, well a = 1.72e5; control promoter light, run 1, well b = 2.23e5; uninduced reporter light, run 1, well a = 6480.
After knock-down of CG8051 [DRSC20077], the record shows induced reporter light, run 1, well a = 82250; induced reporter light, run 1, well b = 92135; control promoter light, run 1, well a = 79790; control promoter light, run 1, well b = 1.08e5; uninduced reporter light, run 1, well a = 8820.
Against FarO (Fatty acyl-CoA reductase in oenocytes) [DRSC18475] the deposit lists induced reporter light, run 1, well a = 1.21e5; induced reporter light, run 1, well b = 1.05e5; control promoter light, run 1, well a = 1.74e5; control promoter light, run 1, well b = 1.72e5; uninduced reporter light, run 1, well a = 7105.
For GluRIIB (Glutamate receptor IIB) [DRSC03335], the entry reads induced reporter light, run 1, well a = 1.54e5; induced reporter light, run 1, well b = 1.31e5; control promoter light, run 1, well a = 1.56e5; control promoter light, run 1, well b = 1.55e5; uninduced reporter light, run 1, well a = 8345.
After knock-down of CG4611 [DRSC10434] the results were induced reporter light, run 1, well a = 2.41e5; induced reporter light, run 1, well b = 2.72e5; control promoter light, run 1, well a = 3.07e5; control promoter light, run 1, well b = 2.55e5; uninduced reporter light, run 1, well a = 14340.
Knock-down of CG43078 [DRSC10292] gave: induced reporter light, run 1, well a = 1.33e5; induced reporter light, run 1, well b = 1.13e5; control promoter light, run 1, well a = 82865; control promoter light, run 1, well b = 45445; uninduced reporter light, run 1, well a = 11455.
After knock-down of CG43078 [DRSC10608], the screen gave induced reporter light, run 1, well a = 1.27e5; induced reporter light, run 1, well b = 1.32e5; control promoter light, run 1, well a = 80140; control promoter light, run 1, well b = 47545; uninduced reporter light, run 1, well a = 11960.
Against CG3156 [DRSC18503], the entry reads induced reporter light, run 1, well a = 1.75e5; induced reporter light, run 1, well b = 2.34e5; control promoter light, run 1, well a = 2.23e5; control promoter light, run 1, well b = 2.62e5; uninduced reporter light, run 1, well a = 12885.
Against DCP1 (Decapping protein 1) [DRSC04091], the values are induced reporter light, run 1, well a = 1.40e5; induced reporter light, run 1, well b = 1.14e5; control promoter light, run 1, well a = 78815; control promoter light, run 1, well b = 75110; uninduced reporter light, run 1, well a = 8735.
Against CG34289 [DRSC13625], the entry reads induced reporter light, run 1, well a = 1.52e5; induced reporter light, run 1, well b = 2.12e5; control promoter light, run 1, well a = 1.58e5; control promoter light, run 1, well b = 1.90e5; uninduced reporter light, run 1, well a = 13305.
With knock-down of dyl (dusky-like) [DRSC08466] the results were induced reporter light, run 1, well a = 96035; induced reporter light, run 1, well b = 1.11e5; control promoter light, run 1, well a = 72765; control promoter light, run 1, well b = 37910; uninduced reporter light, run 1, well a = 9955.
Depletion of dyl (dusky-like) [DRSC08467] gave: induced reporter light, run 1, well a = 65200 (active); induced reporter light, run 1, well b = 1.38e5; control promoter light, run 1, well a = 2.95e5; control promoter light, run 1, well b = 3.19e5; uninduced reporter light, run 1, well a = 7405.

Hits, among the entries above:
dyl (dusky-like) [DRSC08467] — induced reporter light, run 1, well a: 65200 (active); induced reporter light, run 1, well b: 1.38e5; control promoter light, run 1, well a: 2.95e5; control promoter light, run 1, well b: 3.19e5; uninduced reporter light, run 1, well a: 7405
